Results taken from patent US20090233942A1, “Genetic markers associated with response to antidepressants” (priority 2008, published 2009).
At least one compound was matched to its structure with a doubt left.

What was measured:
patients with MDD = test: Five Phase II studies of vilazodone, eight weeks of treatment; assay type: in vivo, human; details: active comparator in three Phase II studies
Description: As part of the vilazodone development program, five Phase II studies have been conducted, all in patients with MDD. These studies randomized 2,098 patients for eight weeks of treatment, 1196 of whom received vilazodone.

PLC-β1 knockout mice = details: cited from earlier work
MAPK pathway = details: rat hippocampus and frontal cortex; cited from earlier work

| SMILES | activity of the MAPK pathway (MAPK pathway) | other results |
| --- | --- | --- |
| CN(C)CCCC1(c2ccc(F)cc2)OCc2cc(C#N)ccc21 (stereo not shown) [citalopram, reference compound] |  | Hamilton Depression Scale (HAM-D) total score versus placebo (patients with MDD): did not show a statistically significant improvement |
| CN1CCN(C2=Nc3cc(Cl)ccc3Nc3ccccc32)CC1 [clozapine] |  | schizophrenic-like behaviors (PLC-β1 knockout mice): rescued |
| [Li] [lithium] | increase |  |
| CCCC(CCC)C(=O)O [valproate] | increase |  |
